Data taken from publication PMC4496399.

Amino acid sequences for entries named in this document (tags omitted). Residues count along the entry.
UniProt P04629, residues 33-796: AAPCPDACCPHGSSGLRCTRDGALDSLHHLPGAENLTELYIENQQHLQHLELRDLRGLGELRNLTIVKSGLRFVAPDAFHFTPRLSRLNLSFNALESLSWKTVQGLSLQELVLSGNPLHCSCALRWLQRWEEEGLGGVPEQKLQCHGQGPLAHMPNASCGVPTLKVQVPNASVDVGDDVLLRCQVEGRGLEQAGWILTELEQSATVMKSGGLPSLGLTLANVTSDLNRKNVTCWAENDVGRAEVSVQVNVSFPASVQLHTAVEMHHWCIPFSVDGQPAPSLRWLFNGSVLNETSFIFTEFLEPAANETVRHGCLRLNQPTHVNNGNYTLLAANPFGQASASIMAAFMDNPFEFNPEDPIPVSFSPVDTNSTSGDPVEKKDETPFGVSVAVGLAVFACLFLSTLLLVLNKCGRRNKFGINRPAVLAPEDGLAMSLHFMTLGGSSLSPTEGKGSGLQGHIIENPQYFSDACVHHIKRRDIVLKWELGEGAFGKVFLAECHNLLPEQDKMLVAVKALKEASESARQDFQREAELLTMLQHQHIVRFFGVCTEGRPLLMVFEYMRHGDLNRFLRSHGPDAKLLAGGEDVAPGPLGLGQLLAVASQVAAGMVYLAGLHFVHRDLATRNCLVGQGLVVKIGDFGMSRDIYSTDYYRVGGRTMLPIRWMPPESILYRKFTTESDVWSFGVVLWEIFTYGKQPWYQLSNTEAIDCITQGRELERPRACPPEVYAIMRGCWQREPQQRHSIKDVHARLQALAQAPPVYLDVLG
UniProt P12814: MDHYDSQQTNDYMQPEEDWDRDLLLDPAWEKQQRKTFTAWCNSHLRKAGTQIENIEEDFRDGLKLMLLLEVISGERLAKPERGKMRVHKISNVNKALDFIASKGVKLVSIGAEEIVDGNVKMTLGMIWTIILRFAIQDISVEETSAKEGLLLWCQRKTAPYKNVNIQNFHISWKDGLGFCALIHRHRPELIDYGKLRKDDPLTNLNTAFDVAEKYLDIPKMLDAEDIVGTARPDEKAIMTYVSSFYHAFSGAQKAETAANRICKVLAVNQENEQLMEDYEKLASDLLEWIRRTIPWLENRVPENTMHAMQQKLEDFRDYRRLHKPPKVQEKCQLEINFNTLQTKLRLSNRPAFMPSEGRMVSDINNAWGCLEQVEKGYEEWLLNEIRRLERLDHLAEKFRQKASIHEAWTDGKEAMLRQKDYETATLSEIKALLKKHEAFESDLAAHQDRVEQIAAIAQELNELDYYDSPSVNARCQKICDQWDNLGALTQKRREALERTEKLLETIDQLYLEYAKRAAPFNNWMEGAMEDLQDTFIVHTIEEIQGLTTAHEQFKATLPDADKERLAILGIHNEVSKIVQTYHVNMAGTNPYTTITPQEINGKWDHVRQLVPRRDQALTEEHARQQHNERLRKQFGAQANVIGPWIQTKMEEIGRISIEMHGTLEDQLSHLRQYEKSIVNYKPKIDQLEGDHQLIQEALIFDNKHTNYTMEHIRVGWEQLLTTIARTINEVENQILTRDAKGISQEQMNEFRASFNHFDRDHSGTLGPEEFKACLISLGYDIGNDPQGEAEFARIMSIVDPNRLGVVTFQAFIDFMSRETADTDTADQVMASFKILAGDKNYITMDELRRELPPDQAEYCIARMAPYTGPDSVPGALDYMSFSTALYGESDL
UniProt P26038: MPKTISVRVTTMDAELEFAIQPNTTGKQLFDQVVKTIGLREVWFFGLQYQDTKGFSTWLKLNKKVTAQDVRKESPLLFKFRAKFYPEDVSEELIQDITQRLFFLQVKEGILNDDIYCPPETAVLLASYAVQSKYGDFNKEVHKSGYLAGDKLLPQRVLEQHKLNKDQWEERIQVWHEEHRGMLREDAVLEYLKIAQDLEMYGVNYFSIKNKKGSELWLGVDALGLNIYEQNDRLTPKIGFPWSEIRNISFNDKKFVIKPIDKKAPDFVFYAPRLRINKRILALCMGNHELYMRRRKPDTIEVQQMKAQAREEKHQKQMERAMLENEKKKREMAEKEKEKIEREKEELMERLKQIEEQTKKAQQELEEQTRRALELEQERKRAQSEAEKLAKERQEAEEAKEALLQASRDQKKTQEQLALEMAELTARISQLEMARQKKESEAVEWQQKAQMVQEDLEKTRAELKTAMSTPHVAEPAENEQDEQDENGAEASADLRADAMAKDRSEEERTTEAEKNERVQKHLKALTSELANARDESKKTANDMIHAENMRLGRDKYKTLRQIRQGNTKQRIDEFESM
UniProt P16070, residues 21-742: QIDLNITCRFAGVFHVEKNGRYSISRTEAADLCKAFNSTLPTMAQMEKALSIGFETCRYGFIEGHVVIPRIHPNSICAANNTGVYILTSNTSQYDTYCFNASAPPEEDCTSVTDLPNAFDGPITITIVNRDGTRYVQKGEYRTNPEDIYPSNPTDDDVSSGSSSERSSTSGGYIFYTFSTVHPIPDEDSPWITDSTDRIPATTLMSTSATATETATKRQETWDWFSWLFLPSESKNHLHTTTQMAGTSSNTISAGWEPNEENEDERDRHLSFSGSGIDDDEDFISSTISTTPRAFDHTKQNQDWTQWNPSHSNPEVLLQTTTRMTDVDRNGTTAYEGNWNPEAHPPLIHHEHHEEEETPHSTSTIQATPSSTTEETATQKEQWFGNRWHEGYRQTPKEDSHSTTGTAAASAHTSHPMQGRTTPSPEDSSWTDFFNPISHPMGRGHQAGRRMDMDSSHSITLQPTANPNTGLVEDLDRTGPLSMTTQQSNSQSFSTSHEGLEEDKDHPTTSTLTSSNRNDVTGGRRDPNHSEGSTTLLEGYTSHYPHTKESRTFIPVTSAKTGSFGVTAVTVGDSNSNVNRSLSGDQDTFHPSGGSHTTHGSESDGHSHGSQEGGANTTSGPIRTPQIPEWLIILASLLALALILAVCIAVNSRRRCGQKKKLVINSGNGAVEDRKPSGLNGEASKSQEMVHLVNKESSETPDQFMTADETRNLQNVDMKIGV
UniProt P15311: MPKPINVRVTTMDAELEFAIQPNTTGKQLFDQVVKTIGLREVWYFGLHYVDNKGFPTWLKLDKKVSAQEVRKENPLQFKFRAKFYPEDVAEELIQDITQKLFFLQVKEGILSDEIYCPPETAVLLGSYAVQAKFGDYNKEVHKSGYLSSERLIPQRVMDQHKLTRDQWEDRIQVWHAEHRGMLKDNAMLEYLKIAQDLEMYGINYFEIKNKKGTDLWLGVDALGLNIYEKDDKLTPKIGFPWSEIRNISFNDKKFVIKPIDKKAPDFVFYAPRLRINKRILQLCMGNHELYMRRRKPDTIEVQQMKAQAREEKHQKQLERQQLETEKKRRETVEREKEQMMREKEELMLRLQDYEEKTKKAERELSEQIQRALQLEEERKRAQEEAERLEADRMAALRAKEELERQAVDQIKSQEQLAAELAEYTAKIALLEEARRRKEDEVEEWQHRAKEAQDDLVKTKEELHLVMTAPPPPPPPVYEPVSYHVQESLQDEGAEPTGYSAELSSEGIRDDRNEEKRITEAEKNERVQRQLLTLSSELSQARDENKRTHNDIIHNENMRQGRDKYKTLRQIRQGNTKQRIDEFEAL
UniProt Q9UHB6: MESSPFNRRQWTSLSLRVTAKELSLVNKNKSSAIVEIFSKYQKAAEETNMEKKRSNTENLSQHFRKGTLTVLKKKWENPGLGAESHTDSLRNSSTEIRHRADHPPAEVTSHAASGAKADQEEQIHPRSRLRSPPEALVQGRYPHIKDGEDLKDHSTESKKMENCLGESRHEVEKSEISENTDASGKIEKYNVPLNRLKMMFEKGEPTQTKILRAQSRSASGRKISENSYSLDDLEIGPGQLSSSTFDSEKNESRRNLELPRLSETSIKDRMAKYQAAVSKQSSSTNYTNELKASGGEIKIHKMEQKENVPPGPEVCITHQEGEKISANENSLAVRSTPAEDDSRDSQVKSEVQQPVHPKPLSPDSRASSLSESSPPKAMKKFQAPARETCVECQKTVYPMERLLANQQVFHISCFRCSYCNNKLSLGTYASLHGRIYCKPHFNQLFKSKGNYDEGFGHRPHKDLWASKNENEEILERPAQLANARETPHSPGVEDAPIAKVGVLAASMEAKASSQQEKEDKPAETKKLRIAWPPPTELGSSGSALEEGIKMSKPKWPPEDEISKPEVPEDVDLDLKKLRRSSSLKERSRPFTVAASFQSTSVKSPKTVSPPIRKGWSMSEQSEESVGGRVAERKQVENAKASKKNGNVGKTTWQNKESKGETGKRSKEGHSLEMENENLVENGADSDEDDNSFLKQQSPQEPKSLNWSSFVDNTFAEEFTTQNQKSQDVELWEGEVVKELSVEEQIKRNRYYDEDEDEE
UniProt Q05397: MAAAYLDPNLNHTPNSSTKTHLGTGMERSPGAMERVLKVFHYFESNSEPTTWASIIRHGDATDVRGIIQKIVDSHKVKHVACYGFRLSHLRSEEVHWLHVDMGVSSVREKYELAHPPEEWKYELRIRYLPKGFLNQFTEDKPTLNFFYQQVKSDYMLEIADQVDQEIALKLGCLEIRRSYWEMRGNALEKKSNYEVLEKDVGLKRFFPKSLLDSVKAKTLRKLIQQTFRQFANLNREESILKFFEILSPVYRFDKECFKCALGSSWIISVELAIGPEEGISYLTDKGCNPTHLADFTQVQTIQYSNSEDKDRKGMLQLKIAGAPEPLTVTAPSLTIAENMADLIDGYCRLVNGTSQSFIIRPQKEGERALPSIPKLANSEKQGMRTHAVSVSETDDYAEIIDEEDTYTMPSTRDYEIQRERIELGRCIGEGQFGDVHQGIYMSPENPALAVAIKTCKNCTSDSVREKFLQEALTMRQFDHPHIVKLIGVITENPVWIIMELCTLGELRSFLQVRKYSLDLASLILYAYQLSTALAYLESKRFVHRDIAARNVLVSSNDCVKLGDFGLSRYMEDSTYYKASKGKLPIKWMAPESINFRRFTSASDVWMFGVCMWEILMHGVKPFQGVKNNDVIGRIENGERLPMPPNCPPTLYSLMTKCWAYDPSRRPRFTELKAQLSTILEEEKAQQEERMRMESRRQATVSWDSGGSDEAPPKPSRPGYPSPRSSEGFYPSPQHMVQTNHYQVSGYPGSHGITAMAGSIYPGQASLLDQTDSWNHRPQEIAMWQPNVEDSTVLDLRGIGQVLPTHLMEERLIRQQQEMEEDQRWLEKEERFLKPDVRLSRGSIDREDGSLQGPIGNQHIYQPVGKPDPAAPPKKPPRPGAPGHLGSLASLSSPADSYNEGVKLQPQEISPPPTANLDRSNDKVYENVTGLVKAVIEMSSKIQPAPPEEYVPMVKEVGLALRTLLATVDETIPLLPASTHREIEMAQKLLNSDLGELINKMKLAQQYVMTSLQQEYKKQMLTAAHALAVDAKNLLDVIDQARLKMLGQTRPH

Target: HA-TrkA (UniProt P04629)
Experiment: affinity purification with mass spectrometry; anti-HA IP from lysates of HA-TrkA MDA-MB-231 cells treated with NGF (16 nM) for 30 min; eluates on SDS-PAGE, bands of increased intensity in NGF-treated cells excised, nanoLC-MS/MS

binding | Substance
binds | Alpha-actinin-1 (from UniProt P12814 1-892)
binds | Moesin (from UniProt P26038 1-577)
binds | CD44 antigen (from UniProt P16070 21-742) (receptor)

Second part, the substance before the results:

Substance | binding
Ezrin (from UniProt P15311 1-586) | binds
LIM domain and actin-binding protein 1 (from UniProt Q9UHB6 1-759) | binds
Focal adhesion kinase 1 (from UniProt Q05397 1-1052) (enzyme) | binds

Results are given in words; binding and its absence hold for the method and conditions named. In cells and extracts the contact can be indirect. These calls come from enrichment with a bait or labelling near it, and not all partners need be listed.
